Results taken from publication PMC8671642.
Results are given in words; binding and its absence hold for the method and conditions named. For some assays here: Binding seen in cells or lysates may run through a third protein. Some results given as binding are weak or reduced against the parent protein; the word gives no strength. For some assays here: Tags and fused reporters may be left off the sequences shown.

By UniProt entry, the sequences of proteins in these tests, tags left out. Residues count along the entry.
UniProt Q5NCH9, residues 24-871: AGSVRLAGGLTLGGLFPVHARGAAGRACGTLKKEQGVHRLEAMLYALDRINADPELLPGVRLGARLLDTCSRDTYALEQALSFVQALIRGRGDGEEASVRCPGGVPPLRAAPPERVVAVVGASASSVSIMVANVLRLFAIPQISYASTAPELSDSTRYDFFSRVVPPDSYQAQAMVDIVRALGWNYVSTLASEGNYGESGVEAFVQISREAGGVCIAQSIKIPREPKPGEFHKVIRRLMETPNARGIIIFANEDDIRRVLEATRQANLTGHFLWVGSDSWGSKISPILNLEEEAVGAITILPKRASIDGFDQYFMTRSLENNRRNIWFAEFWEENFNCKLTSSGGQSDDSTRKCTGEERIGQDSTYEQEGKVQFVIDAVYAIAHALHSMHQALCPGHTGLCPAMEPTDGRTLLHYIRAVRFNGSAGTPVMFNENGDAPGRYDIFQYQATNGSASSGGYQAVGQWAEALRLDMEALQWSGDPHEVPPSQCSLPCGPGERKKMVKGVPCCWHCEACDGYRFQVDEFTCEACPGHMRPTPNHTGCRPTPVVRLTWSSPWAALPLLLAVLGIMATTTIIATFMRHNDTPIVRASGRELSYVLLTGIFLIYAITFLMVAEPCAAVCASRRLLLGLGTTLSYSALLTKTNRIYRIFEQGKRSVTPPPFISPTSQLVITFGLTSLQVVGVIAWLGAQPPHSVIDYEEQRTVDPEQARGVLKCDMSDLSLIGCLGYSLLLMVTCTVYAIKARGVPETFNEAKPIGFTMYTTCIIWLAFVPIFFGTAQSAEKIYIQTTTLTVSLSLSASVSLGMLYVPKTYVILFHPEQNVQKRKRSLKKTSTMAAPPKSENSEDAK

Key:
[1] = target: mouse mGluR6 (metabotropic glutamate receptor 6), WT, untagged (mouse) (UniProt Q5NCH9); assay: SDS-PAGE and western blot (size of the band); input lysate of transfected HEK cells resolved by SDS-PAGE, blotted with mGluR6 mAb 312
[2] = target: T1, extracellular domain of mouse ELFN1 (a.a. 1-418) fused to human Fc (mouse) (UniProt Q8C8T7); assay: pull-down; Fc fusion secreted into media and bound to protein G agarose beads; incubated with lysate of transfected HEK cells (PBS, 1% Triton X-100, 50 mM supplemental NaCl) at 4 °C for 90 min; beads washed four times; blotted with mGluR6 mAb 312; only the target purified
T1 sequence: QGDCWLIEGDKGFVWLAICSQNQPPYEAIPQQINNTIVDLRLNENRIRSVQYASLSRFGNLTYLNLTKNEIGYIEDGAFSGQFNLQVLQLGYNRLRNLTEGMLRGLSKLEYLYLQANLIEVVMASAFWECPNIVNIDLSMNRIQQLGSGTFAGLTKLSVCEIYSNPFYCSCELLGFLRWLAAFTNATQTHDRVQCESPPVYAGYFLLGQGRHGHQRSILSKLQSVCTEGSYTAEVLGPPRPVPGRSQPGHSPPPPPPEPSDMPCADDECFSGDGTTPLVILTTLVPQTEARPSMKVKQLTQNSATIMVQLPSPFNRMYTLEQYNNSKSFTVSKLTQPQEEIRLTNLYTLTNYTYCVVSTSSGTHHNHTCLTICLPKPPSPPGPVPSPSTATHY

With “mouse mGluR6 (metabotropic glutamate receptor 6), WT, untagged (from UniProt Q5NCH9 24-871)” the binding [1] was “binds” and the binding [2] was “binds”.
